## Primary screen of a compound library

Measurements from “University of Dundee, Small-Polar-MMV Screening Library” (2021), ChEMBL document CHEMBL3988442.

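Whole-cell growth test on Mycobacterium tuberculosis, read after 3 days in glucose-containing 7H9 medium; the read-out is not stated. Tested at 50 µM. The record gives no direction; compounds that gave an IC50 in retests scored well above the rest, so higher reads as more growth inhibition. Of about 69,000 compounds tested this way, about 760 (1.1%) reached 50% or more in at least one test.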

Results are given as percent effect. How 0% and 100% were set is not recorded. Most values in the screen are low, and negative values occur. The compounds are a random part of those screened. Two or more numbers in one place are separate tests of the same structure; such repeats can differ widely.

Compound | percent effect
Cn1cc(N2CCC3(CCN(Cc4cccnc4)C3)C2=O)cn1.O=C(O)C(F)(F)F.O=C(O)C(F)(F)F (stereo not given) | -22.1%
COc1ccsc1C(=O)NCCN1CCOCC1 | 13.55% & -11.7%
O=C(c1ccccc1N1CCOCC1)N1CCCC(n2ccnc2)C1 (stereo not given) | 32.49%
O=C(O)C(F)(F)F.c1ccc(N2CCC3(CCCN(c4ncccn4)C3)C2)nc1 (stereo not given) | 24.55%
CN(CC1CC1)c1ccc2ccc(C(=O)NCCN3CCOCC3)cn12 | -3.492%
COc1cccc2c1OCC(NCCCOc1cccnc1)C2 (stereo not given) | -12.97% & 7.071%
N#Cc1c(Cl)nsc1NCc1ccc(N2CCSCC2)cc1 | 10.63%
COCCN1CCc2nc(SCc3ccc(F)cc3)[nH]c(=O)c2C1 | -1.883%
CCOc1ccc(CNC(=O)c2cnc(OC)nc2)cc1 | 25.99%
Cc1cc(CN(C)C2CCCN(Cc3noc(C)n3)C2)no1 (stereo not given) | -36.48%
CN(C)C[C@@H]1CN(C(=O)Cc2ccccc2)C[C@@H]1CO | 36.07%
CCOc1ccnc(N2CCN(C(=O)c3ccc(C#N)cc3)CC2)n1 | 30.73%
O=C(O)C(F)(F)F.[H][C@@]12COC[C@]1(C(=O)NCC1CC1)CN(Cc1scnc1C)C2 | 5.308%
CC(NCC1CCN(CCO)CC1)c1ccc(F)c(Cl)c1 (stereo not given) | -10.03%
Cn1c(C(F)(F)F)nn(CCNC(=O)CSCc2ccccc2)c1=O | 14.28% & 4.417%
Cn1ncc2c(=O)[nH]c(CN3CCCc4cc(F)cc(F)c43)nc21 | -16.47%
Cc1ccc(N2CCN(C(=O)COc3ccccc3)CC2)nn1 | -15.99% & -2.413%
O=C(O)C(F)(F)F.O=C(O)C(F)(F)F.[H][C@@]12CN(Cc3ccsc3)C[C@]1([H])OCCN2c1ncccn1 | 7.671%
CC(C)(C)n1ncc2c1NC(=O)CC2c1ccc(C#N)cc1 (stereo not given) | 16.93%
CCOCCCC(=O)NCCC(=O)N1CCN(c2ccccn2)CC1 | -2.929% & 9.808%
Cc1ccccc1CNC(=O)c1ccccc1-n1cnc(CN)c1 | 16.98%
CCc1csc(CNC2CCN(Cc3ccccc3)C2)n1 (stereo not given) | 19.5%
O=C(O)C(F)(F)F.[H][C@@]12CN(Cc3ccc(F)cc3)C[C@]1([H])C(=O)N(c1ccsc1)C2 | 46.71%
O=C1CCCC2=C1C(c1cc(Cl)ccc1F)Nc1nonc1N2 (stereo not given) | 8.799% & 3.397%
O=C(Cn1ccc2ccc(Cl)cc21)/N=c1\[nH]nc(C2CCCO2)s1 (stereo not given) | -25.6%
CCc1noc(C)c1C(=O)N1CCC(c2[nH]ncc2S(C)(=O)=O)C1 (stereo not given) | 11.47%
CN(Cc1csc(-c2ccccc2)n1)Cc1ncccc1C(=O)O | -11.66% & -39.36%
CCC(=O)NS(=O)(=O)c1cccnc1Nc1cccc(Cl)c1Cl | -2.615% & 0.3469%
CC(=O)N1CCC(C)(c2cc(C(=O)NCC3CC3)nc(C)n2)CC1 | 8.39%
CC(C)COCC1CN(Cc2ccoc2)Cc2ncn(C)c21 (stereo not given) | -3.252%
COc1ccc(C(=O)NCC(C)(O)CCc2ccccc2)cc1 (stereo not given) | -9.903% & 4.58%
CC(C)CN1CCCC2(CCN(c3ccccn3)C2)C1.O=C(O)C(F)(F)F (stereo not given) | -22.3%
Cc1cc(Cc2ccccc2F)cc(C2CCCNC2)n1 (stereo not given) | 8.744%
CCN(C(=O)COC)C(c1ccc(Cl)cc1)c1ccccn1 (stereo not given) | 7%
CC(C)COC(=O)N1CC(=O)N(Cc2ccc(Cl)cc2)CC(O)C1 (stereo not given) | -3.976%
O=C(NCCO)Nc1ccc(Br)c(F)c1 | -8.339% & 0.4025%
Cn1ccnc1CN1CCC2(CC1)CN(c1ccccn1)CCO2.O=C(O)C(F)(F)F.O=C(O)C(F)(F)F | 2.163% & 10.95%
COCCCn1ccc(NCc2cnc(C(C)(C)C)s2)n1 | 11.76%
O=C(CN1CCOC(c2ccccc2C(F)(F)F)C1)NC1CC1 (stereo not given) | -0.1981%
[H][C@]12CC[C@]([H])(C1)[C@H](NC(=O)C1(Oc3ccc(Cl)cc3)CCNCC1)C2 | 38.08%
CC(=O)NCc1ccc(-n2ccnc2C)nc1 | 5.73%
CCOC(=O)CNC(=O)C1OC(c2ccccc2)=NN1C(C)=O (stereo not given) | 7.504%
COCCC(=O)NCCc1nc2cc(-c3ccc(OC)cc3)ncn2n1 | -7.315%
Cc1nc(C)c(COc2ccc(N(C)S(C)(=O)=O)cc2)s1 | 17.05%
OCCN(Cc1ccno1)Cc1cc(Br)ccc1F | 4.069% & -4.192%
Cc1cc(CN(C)Cc2csc(-c3ccc(C(C)C)cc3)n2)no1 | 14.18% & 36.25%
O=C(O)C(F)(F)F.O=C(O)C(F)(F)F.[H][C@@]12CO[C@@H](CNC(=O)c3ccco3)[C@]1([H])CCN(Cc1cnn(C)c1)C2 | -4.105%
NCCCC(=O)NCC1(O)CCN(c2ccnc3cccnc23)C1 (stereo not given) | 2.813%
COc1cccc(C(=O)N2CCc3nc(C4CCCN4)ncc3C2)c1.Cl (stereo not given) | 29.19%
CCc1nccn1CC(=O)N1CCN(C2CCc3ccccc3C2)CC1 (stereo not given) | -2.313% & 1.403%
O=C1COc2ccc(S(=O)(=O)NCC3CCCO3)c3c2N1CCC3 (stereo not given) | 13.54%
CCn1ccnc1CN1CCN(C(C)C)CC1C (stereo not given) | -8.454% & -22.05%
O=C1NCCN1C1CCN(CCOc2cccc3ccccc23)CC1 | 24.67%
CC(C)N1CCC(Cc2cncc(-c3ccccc3C(=O)O)n2)CC1 | 0.8951%
CN(CCCN1CCOCC1)[C@@H]1c2ccccc2C2(CCNCC2)[C@H]1O | -17.96%
CCn1ncc2c1C(COC)CN(Cc1ccco1)C2 (stereo not given) | -12.87%
N#Cc1nccnc1N1CCC(OCCCc2ccccc2)C1 (stereo not given) | 42.58%
CN(C)Cc1nnc(C2CCCN(c3nc(C(N)=O)cs3)C2)n1C (stereo not given) | -20.04%
O=C(NCCCO)Nc1cccc(I)c1 | -6.79%
CN(Cc1cccc(O)c1)CC1CCCN(CCc2ccc(Cl)cc2)C1 (stereo not given) | 3.245%
Cc1ccc(NC(=O)[C@H]2C[C@H](C(=O)O)CN(CC(C)C)C2)cn1 | -1.872% & -10.13%
Cc1nc(C)c(-c2ccn(CC(=O)Nc3cnn(C)n3)n2)s1 | 26.18%
O=C(COc1coc(CN2CCCCC2)cc1=O)c1ccc(Cl)cc1 | 8.942%
CCn1nc(C(C)C)cc1C(=O)NCC1CCCN(c2ccccn2)C1 (stereo not given) | 18.81%
CNC(=O)C1CCCN(c2nc(-c3ccco3)nc3c2CCNCC3)C1 (stereo not given) | -4.595%
CC(C)CC(=O)N1CCCn2cnc(CNS(C)(=O)=O)c2C1 | -29.06%
CC(C)(C)CN(CCC#N)C(=O)c1cccc(CC#N)c1 | -6.52%
COc1cccc(OCC(=O)N2CCCSCC2CN2CCOCC2)c1 (stereo not given) | -1.108% & 28.08%
Cn1ccnc1CNCCNc1ncc(Cl)cc1Cl | -14.23%
COc1cc(C(=O)N2CCC(O)(CN3CCOCC3)C(C)(C)C2)ccn1 (stereo not given) | -3.754%
Cc1nccn1Cc1nnc(C2CCCN(Cc3ccncc3)C2)n1C (stereo not given) | 19.41%
COc1cc(N2CCCn3cnc(COCCO)c3C2)ncn1 | -3.297% & -11.9%
COCCOC1CCN(C(=O)NCc2cc(C)oc2C)CC1 | 15.55%
Cc1cnn(CCNCc2nnc(-c3ccc(F)cc3)o2)c1 | -5.398%
COCCCNC(=O)CN(C)C(=O)c1cc(Cl)ccc1O | -12.92%
Cc1nn(C)c(C)c1C(C)NC(=O)Nc1cccnc1N1CCCC1 (stereo not given) | 14.42%
CSc1cccc(CN2CCC(CCC(=O)NC3CC3)CC2)c1 | -4.595% & 5.419%
Cc1ccccc1CC(=O)N1C[C@@H](O)[C@H](N2CCN(C)CC2)C1 | -21.86%
Cc1ccc(-c2n[nH]cc2CNCC2CCc3nnc(C)n3C2)cc1 (stereo not given) | -19.21% & -2.344%
CCn1c(CN2CCC(O)(c3ccc4c(c3)OCO4)CC2)cnc1SC.O=C(O)CC(O)(CC(=O)O)C(=O)O | 9.018%